Data published in PubChem BioAssay AID504327 (National Center for Advancing Translational Sciences (NCATS), 2011).
Among all 390,000 compounds or so, about 820 (0.21%) were called active. The inconclusive results got no clear call from the source; some entries with a clear call stand among them for comparison. Calls come from the whole dose curve; as a rule, active = well fitted inhibition curve with a large enough effect; inconclusive = small, poorly fitted or top-dose-only effect, or another doubt; inactive = no such curve, though single readings can be large or run the other way. A potency beside an inconclusive call is a rough fit, not a confirmed value.

Protein sequences, listed by entry. Tags and fused reporters are not part of them.
UniProt Q92830, whole entry, looked up: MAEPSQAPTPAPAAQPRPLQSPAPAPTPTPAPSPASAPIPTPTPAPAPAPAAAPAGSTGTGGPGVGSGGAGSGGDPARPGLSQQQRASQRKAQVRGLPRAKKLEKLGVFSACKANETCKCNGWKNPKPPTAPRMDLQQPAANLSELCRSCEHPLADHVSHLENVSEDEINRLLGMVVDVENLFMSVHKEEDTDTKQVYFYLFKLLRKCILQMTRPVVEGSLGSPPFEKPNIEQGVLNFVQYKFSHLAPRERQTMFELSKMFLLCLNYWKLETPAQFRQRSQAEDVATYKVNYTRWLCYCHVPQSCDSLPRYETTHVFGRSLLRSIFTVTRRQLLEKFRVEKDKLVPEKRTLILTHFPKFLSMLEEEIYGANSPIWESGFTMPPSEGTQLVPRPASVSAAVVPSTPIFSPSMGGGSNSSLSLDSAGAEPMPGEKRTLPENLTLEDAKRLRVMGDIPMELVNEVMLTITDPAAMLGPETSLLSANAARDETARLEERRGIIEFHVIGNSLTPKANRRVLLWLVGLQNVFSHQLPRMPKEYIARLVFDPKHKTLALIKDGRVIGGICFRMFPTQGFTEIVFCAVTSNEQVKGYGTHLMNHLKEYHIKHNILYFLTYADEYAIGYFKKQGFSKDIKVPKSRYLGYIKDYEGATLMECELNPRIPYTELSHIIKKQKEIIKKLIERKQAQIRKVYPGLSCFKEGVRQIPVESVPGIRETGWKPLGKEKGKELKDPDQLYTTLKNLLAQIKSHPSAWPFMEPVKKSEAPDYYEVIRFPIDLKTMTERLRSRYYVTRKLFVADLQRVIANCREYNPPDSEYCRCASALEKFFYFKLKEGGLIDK

biological target: Histone acetyltransferase KAT2A (Homo sapiens) (UniProt Q92830); assay: qHTS Assay for Inhibitors of GCN5L2; details: GCN5L2 HAT assay, ThioGlo1 CoA-SH fluorescence; activity change, negative = inhibition: at 58.9 µM (top of the series) unless noted
In short: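 Enzyme at 20nM final was mixed with library compounds for 15 min at room temperature. Peptide H3(1-25) at 75uM, acetyl-CoA at 70uM and ThioGlo1 at 50uM were then added. Plates were read immediately and after 20 min (Ex340nm/Em540nm).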
% is set by controls: 0 for no effect and ±100 for the full control effect; potency is the fitted concentration of half-maximal effect.

| SMILES | Potency | activity change, negative = inhibition |
| --- | --- | --- |
| CCc1ccc(C(=O)Nc2ccc3c(c2)n(C)c(=O)n3C)cc1 | inconclusive: 39.8 µM [inhibitor, single point] | – |
| N#Cc1nc(COc2ccc(Cl)cc2)oc1N1CCCCCC1 | inconclusive: 0.562 µM [inhibitor, single point] | – |
| Oc1[nH]c2ccccc2c1/C=N/N1CCCCC1 | inconclusive: 3.55 µM [inhibitor, single point] | – |
| COc1ccc(NC(=O)CC2C(=O)NCCN2C(=O)c2ccc(N(C)C)cc2)cc1 (configuration not stated) | inconclusive: 10 µM [inhibitor, partial curve, poor fit] | – |
| CC(Oc1ccc(-c2ccccc2)c(F)c1)c1ccn(S(=O)(=O)c2ccc(Br)cc2)n1 (configuration not stated) | inconclusive: 0.794 µM [inhibitor, full curve, poor fit] | – |
| CCOc1ccc(CNC(=O)C(=O)c2cn(CC(=O)N3CCOCC3)c3ccccc23)cc1OC | inconclusive: 3.55 µM [inhibitor, single point] | – |
| CCC(CO)Nc1nc(CN2CCCCC2)nc2scc(-c3ccccc3)c12 (configuration not stated) | inactive | – |
| COc1ccc(NC(=O)N(C)C[C@H]2Oc3ccc(NC(=O)CCN4CCOCC4)cc3C(=O)N([C@@H](C)CO)C[C@H]2C)cc1 | inactive | – |
| COc1ccc(NC(=O)CSc2ccc(-c3sc(C)nc3C)nn2)cc1 | inconclusive: 0.1 µM [inhibitor, full curve, poor fit] | – |
| Cc1c(C(=O)OCCOc2ccccc2)[nH]c2c1C(=O)CCC2 | – | inconclusive: -92% [inhibitor] [at 0.501 µM] |
| CCC(Cn1nnc2ccccc2c1=O)NC(=O)Nc1cc(Cl)ccc1OC (configuration not stated) | inactive | – |
| CC[C@@]12C(=O)N(c3cccc(F)c3)C(=O)N1[C@H](c1ccc(Br)cc1)[C@@H]1C(=O)N(C(C)(C)C)C(=O)[C@@H]12 | inconclusive: 35.5 µM [inhibitor, single point] | – |
| C[C@@H](C(=O)NCCc1ccccc1)N1C(=O)N2CCc3c([nH]c4ccccc34)[C@@]2(C)C1=O | inconclusive: 39.8 µM [inhibitor, single point] | – |
| O=C1C2CC=C(Cl)CC2C(=O)N1CN(Cc1ccco1)CN1C(=O)C2CC=C(Cl)CC2C1=O (configuration not stated) | inactive | – |
| CCOC(=O)c1c(C)cc(C)n2c1nc1ccccc12 | inconclusive: 14.1 µM [inhibitor, single point] | – |
| CN1CCN(C(CNC(=O)C(=O)Nc2ccc3c(c2)OCCO3)c2ccc(F)cc2)CC1 (configuration not stated) | inactive | – |
| Cc1ccc(-c2nc3ccc(NS(=O)(=O)c4ccccc4)cc3[nH]2)o1 | inactive | – |
| O=C1S/C(=C\c2ccc(O)c([N+](=O)[O-])c2)C(=O)N1Cc1cccc([N+](=O)[O-])c1 | inconclusive: 31.6 µM [inhibitor, single point] | – |
| COc1ccc(OCC(=O)NNC(=S)NC(=O)c2ccc([N+](=O)[O-])cc2)cc1 | inconclusive: 15.8 µM [inhibitor, partial curve] | – |
| Cc1ccc(NC(=O)/C(=C\c2cccnc2)NC(=O)c2ccco2)cc1 | inconclusive: 7.08 µM [inhibitor, single point] | – |
| CCCCN(C)CCNC(=O)C1CCN(c2nc3ccc(CC)cc3s2)CC1 | inactive | – |

| SMILES | Potency | activity change, negative = inhibition |
| --- | --- | --- |
| CCCOc1ccc(N2C(=O)CC(N3CCN(c4ccc([N+](=O)[O-])cc4)CC3)C2=O)cc1 (configuration not stated) | inconclusive: 7.08 µM [inhibitor, partial curve] | – |
| CCC(C)(C)NC(=O)C(OC(=O)c1ccco1)c1ccc(OC)cc1 (configuration not stated) | inconclusive: 0.708 µM [inhibitor, single point] | – |
| NC(=O)c1ccc(NC(=O)COC(=O)/C=C/c2ccc(Br)o2)cc1 | inconclusive: 17.8 µM [inhibitor, partial curve] | – |
| O=C(NC1CCCC1)C(c1ccccc1F)N(C(=O)c1ccco1)C1CCCC1 (configuration not stated) | inactive | – |
| CCOc1ccc(OCC(O)CNC2CCN(Cc3ccccc3)CC2)cc1 (configuration not stated) | inactive | – |
| O=C(COc1ccc(S(=O)(=O)N2CCCC2)cc1Cl)NCc1cccnc1 | inactive | – |
| C/C(=C\c1ccccc1F)C1Nc2cccc3cccc(c23)N1 | inconclusive: 22.4 µM [inhibitor, partial curve] | – |
| COc1ccc(S(=O)(=O)N2CCOC2CNC(=O)C(=O)NCCc2ccccc2)cc1 (configuration not stated) | inconclusive: 7.08 µM [inhibitor, single point] | – |
| COc1ccc(C(=O)Nc2cccc(/C=C/c3nc4ccccc4c(=O)[nH]3)c2)cc1 | inconclusive: 39.8 µM [inhibitor, single point] | – |
| COc1ccccc1NC(=O)CCc1nnc2ccc(N3CCC4(CC3)OCCO4)nn12 | inconclusive: 39.8 µM [inhibitor, partial curve, poor fit] | – |
| Cc1ccc(C(=O)N2CCN(S(=O)(=O)N3CCCCC3)CC2)cc1 | inconclusive: 1 µM [inhibitor, full curve, poor fit] | – |
| Cc1cc(C(=O)O)c(C)n1-c1ccccc1 | inconclusive: 39.8 µM [inhibitor, single point] | – |
| CCOC(=O)N1CCC(N2CCCC(C(=O)c3cc(C)c(OC)c(C)c3)C2)CC1 (configuration not stated) | inconclusive: 39.8 µM [inhibitor, single point] | – |
| CC(=O)N(Cc1cc(=O)[nH]c2ccccc12)c1cccc(C)c1 | inactive | – |
| CC(/C=C1\SC(=S)N(CC(=O)O)C1=O)=C\c1ccccc1 | inconclusive: 35.5 µM [inhibitor, single point] | – |
| Cc1c2cnn(CC(=O)Nc3c(F)c(F)cc(F)c3F)c(=O)c2c(C)n1Cc1ccccc1F | active: 12.6 µM | – |
| COc1ccc(Oc2nnc(-c3ccccc3)cc2C#N)cc1 | inconclusive: 8.91 µM [inhibitor, single point] | – |
| CC(=O)N1CCC(C(=O)c2ccc(Cl)cc2)CC1 | inconclusive: 39.8 µM [inhibitor, single point] | – |
| NNC(=O)C(Cc1cnc[nH]1)NC(=O)OCc1ccccc1 (configuration not stated) | inconclusive: 3.55 µM [inhibitor, single point] | – |
| Cc1ccc(-c2cc(-c3ccc(Cl)cc3)c(C#N)c(N)n2)o1 | inconclusive: 39.8 µM [inhibitor, single point] | – |
| COc1ccc(CCN(C)C2CCCN(C(=O)c3sccc3C)C2)cc1OC (configuration not stated) | inconclusive: 22.4 µM [inhibitor, partial curve, poor fit] | – |

Some of the entries so far, with bars between the fields:
SMILES | Potency | activity change, negative = inhibition
CCCOc1ccc(N2C(=O)CC(N3CCN(c4ccc([N+](=O)[O-])cc4)CC3)C2=O)cc1 (configuration not stated) | inconclusive: 7.08 µM [inhibitor, partial curve] | –
CCC(C)(C)NC(=O)C(OC(=O)c1ccco1)c1ccc(OC)cc1 (configuration not stated) | inconclusive: 0.708 µM [inhibitor, single point] | –
O=C(NC1CCCC1)C(c1ccccc1F)N(C(=O)c1ccco1)C1CCCC1 (configuration not stated) | inactive | –
CCOc1ccc(OCC(O)CNC2CCN(Cc3ccccc3)CC2)cc1 (configuration not stated) | inactive | –
COc1ccc(C(=O)Nc2cccc(/C=C/c3nc4ccccc4c(=O)[nH]3)c2)cc1 | inconclusive: 39.8 µM [inhibitor, single point] | –
CCOC(=O)N1CCC(N2CCCC(C(=O)c3cc(C)c(OC)c(C)c3)C2)CC1 (configuration not stated) | inconclusive: 39.8 µM [inhibitor, single point] | –
CC(=O)N(Cc1cc(=O)[nH]c2ccccc12)c1cccc(C)c1 | inactive | –
CC(/C=C1\SC(=S)N(CC(=O)O)C1=O)=C\c1ccccc1 | inconclusive: 35.5 µM [inhibitor, single point] | –
Cc1c2cnn(CC(=O)Nc3c(F)c(F)cc(F)c3F)c(=O)c2c(C)n1Cc1ccccc1F | active: 12.6 µM | –
COc1ccc(Oc2nnc(-c3ccccc3)cc2C#N)cc1 | inconclusive: 8.91 µM [inhibitor, single point] | –
CC(=O)N1CCC(C(=O)c2ccc(Cl)cc2)CC1 | inconclusive: 39.8 µM [inhibitor, single point] | –
NNC(=O)C(Cc1cnc[nH]1)NC(=O)OCc1ccccc1 (configuration not stated) | inconclusive: 3.55 µM [inhibitor, single point] | –
